Reference: doi:10.1101/2020.12.25.417865
No constants are given. Whether binding was seen depends on the method and setting. In cells and extracts the contact can be indirect. A yes stands for co-enrichment or nearness to the bait. Other partners may have been found. Where a sequence is shown, tags or fusion partners need not be part of it.

T1: Drs2-GFP (S. cerevisiae) (UniProt P39524)
T1 sequence: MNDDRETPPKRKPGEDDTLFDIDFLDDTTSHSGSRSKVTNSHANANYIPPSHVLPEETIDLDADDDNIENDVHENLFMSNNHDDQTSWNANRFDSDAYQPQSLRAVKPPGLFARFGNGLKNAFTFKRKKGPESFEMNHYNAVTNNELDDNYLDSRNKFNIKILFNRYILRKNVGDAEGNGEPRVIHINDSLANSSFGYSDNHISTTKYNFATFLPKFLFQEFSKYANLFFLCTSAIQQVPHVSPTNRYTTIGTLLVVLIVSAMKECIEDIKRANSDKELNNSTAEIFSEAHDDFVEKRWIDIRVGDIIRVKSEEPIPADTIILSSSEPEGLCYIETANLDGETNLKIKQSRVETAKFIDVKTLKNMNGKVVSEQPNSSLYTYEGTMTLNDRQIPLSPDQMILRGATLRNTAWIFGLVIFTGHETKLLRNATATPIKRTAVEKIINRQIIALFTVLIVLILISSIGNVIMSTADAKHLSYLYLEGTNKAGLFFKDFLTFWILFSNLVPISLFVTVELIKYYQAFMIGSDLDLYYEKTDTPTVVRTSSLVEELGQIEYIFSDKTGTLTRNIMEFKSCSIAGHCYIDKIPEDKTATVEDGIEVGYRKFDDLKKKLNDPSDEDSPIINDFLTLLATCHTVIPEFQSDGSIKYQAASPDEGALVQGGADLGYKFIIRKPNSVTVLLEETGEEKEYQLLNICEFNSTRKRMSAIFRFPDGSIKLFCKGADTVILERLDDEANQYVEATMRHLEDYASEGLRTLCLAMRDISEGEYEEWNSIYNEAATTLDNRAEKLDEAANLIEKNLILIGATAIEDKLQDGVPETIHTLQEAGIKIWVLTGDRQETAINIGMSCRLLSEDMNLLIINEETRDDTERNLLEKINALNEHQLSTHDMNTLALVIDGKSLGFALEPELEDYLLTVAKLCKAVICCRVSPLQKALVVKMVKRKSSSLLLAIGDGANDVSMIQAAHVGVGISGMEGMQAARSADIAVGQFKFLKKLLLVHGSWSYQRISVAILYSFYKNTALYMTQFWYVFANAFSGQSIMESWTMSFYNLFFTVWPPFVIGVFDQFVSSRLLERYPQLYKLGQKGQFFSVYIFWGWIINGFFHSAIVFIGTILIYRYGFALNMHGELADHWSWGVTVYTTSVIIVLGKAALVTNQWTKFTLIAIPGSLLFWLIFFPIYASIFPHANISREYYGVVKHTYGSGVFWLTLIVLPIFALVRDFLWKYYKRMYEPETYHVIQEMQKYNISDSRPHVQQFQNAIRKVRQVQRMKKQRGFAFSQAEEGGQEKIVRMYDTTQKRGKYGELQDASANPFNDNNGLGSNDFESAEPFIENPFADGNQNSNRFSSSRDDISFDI

B1: Trs120 (protein, UniProt Q04183 1-1289)
chain: MNILKHFPSYVGPSKIRTLVIPIGHWTRKEFNNAVQKLSEFNEIHLSDVTPIDSPIFTPQGFPHGKLFFDFLTIDHDDALELFLYDFEPFRKTFVIIGLVNDYSDPLTNLNFMKEKYPTLISPNLVYASSTPTKELEQTIDTMENVFASSPDMQKNIETIMCDIARNFLTALNSYYSSYKHVTLRSPGAIGGNAVLKTTLIRQNSYTSSSSSTPMSAVQSSVSSSSKAGSVTTASKRLSSFEMTTNSLKRSASLKLATTLSTSENRSQQKSLGRQMKILGNFQLLAGRYVDALNSFVDAITTLYKVRDYLWLGSALDGISICFLLLSYLGLSYQIPQIVSLICPVEKLNFESSSTGISPVDSNSKATASTTASSTPRNSISIAAMQSPRNSIMSLSAPALNIDVENINLPLLIKCISDKVLYYYDLSLMHNSEYAPQVVYCEFLLKTLTFMTSCYKSSEFSKDVLDNIVKNQHRALSDIPNSPMFPRFEVYFYSNKLFELQLKEMQVEAQIKIYSTMAEVYRLLGYKRKQLFVLRLLMVALLATPNKIAWHPDYRTLIDTIIELLNINESEAKINVDDPSQSTWLILQKKILQLCIKVSRKINDFEYVAKFSSILITKYTHLLNQSEQDALFKEYIQPSITNESITSYWDPFILREVVINRILDSDPTSNEIPLESDVSSLESLENRQKTQDINPQEVFNPFKRVQPTSFVSNNSTKVPILVFLVGDKAEFTCRVQNPFKFDFTINDIQLDEEISEFCEIDRKAVSYSGPYNVKAESIRSITLPLIIKKPTYKKIYEISCLKISILKLPLQKFDIINDSRRSNPVEEEAEYSKCIYGKLKIKILPEQPQLELLSTSKMTRNSWMMLDGTKTDFHITVRNKSLSCAINHIKIIPMNNIEQMLKPDYWKKMPPDDLYIMEKQLDWLSKSCVRIIKLPTVIKPNETITFDLELDNTAVPFNFTGFDLLIEYGMSATDESCIYLKKLSIPYEVTLRRTIEVPSMDIIPLNELFSSQVENVDWIEYVMSKIRAESNLHSRDFILLLLDFRNSWIDGIKLNVQFEDFTSNEYHVEASHTSRIIVPIKKIDYKKYNFENTPIPRIYPGRQFIQSGLNEEQTIEMRQKFWCREHIISKLKCNWKLTTDQSVTGSVDFNKFIEKFDHKMVYTIYPGRLFYGVQLLLDEPKVKVGEIINLKIITEPTSTCRRKQNSTVNFLDIVIFDSKTSKILPRSNRRILYNGSLTKPISTTKVSEINLEIIPIEKGRYEFSVCISKSNNQDGIIQFDSENVILSVI
B2: Vps53 (protein, UniProt P47061 1-822)
chain: MLEGTVDYDPLEDITNILFSKESLNNIDELISITRSYKKQLQEDILKEENELKEHPKNSAEIEASLRKVFQDFKETQDVSASTELTISNLTEGISYLDIAKKNLTHSLTLFQNLKILTDSYIQCNELLSQGSFKKMVSPYKIMCSLAENTFISYKSLDEINYLLSSISRLKGDTLSKIKQNYNALFSGGNISEHDTALTMELREGACELLDCDTSTRAQMIDWCLDKLLFEMKEIFRVDDEAGSLENLSRRYIYFKKILNNFNSKFADYFLKDWEMAVRLTTTFYHITHKDLQTLLKREFKDKNPSIDLFMTALQSTLDFEKYIDVRFSKKIKEPKLSSCFEPYLTLWVSHQNQMMEKKFLSYMSEPKYPSNETESLVLPSSADLFRTYRSVLTQTLELIDNNANDSILTSLANFFSRWLQTYSQKILLPLLLPDNIEVQDKLEAAKYTVLLINTADYCATTIDQLEDKLSEFSGNREKLANSFTKTKNIYDDLLAKGTSFLLNRVIPLDLNFVWREFINNDWSNAAIEDYSRYMVTLKSVLKMPALTDASIKQQQEQPSTLAFILSQFNRDVYKWNFLDKVIDIITTNFVSNTIRLLQPVPPFSLAGSKRKFETRTVVNIGEQLLLDLELLKEIFHTLPESVSNDSDLRENTSYKRVKRHADNNIDQLLKFIKLLMAPLDSADDYYETYSKLTNNNPDSAVWSFVLALKGIPWDLALWKKLWSAYNLETDDTDEGSRPDSNRDLFIFKWDKVLLGQFENNLARMQDPNWSKFVRQDLKISPPVMKRIVSTPQIQQQKEEQKKQSLSVKDFVSHSRFFNRGT
B3: Trs85 (protein, UniProt P46944 1-698)
chain: MVFSYEHYMNLLFHLDNSKETVPPEIAKRIISNAIAPVITVTSTPLFDKHIQETYKVDSLYMLLRFFGGCVSDRDQANEAKVGQHEHEVCDASDSTDSIPKNKNLEVPNLSKKGSRSRSNSLFQRDSTQSQYIRFTRPLGDLIETRDANDMLFNYHSLEVFLDNYLKLVAANTDEMVPHNLLKKSIYHSFFSLAISSTNNLSPYETFNHPILSLIALDISNGEVYEDARDLLVNFKNLNHNTENFPIFMNTNEMLPVFLLCYNDDSQEEFEKCQALAKKLKKQLFVESILLALWKDSFIYDENSVIQLHQPVMSSLEEILFFLQAPTQTTLSLALINSIYDMLDYLVYDLMIPFMKRKVSFWEETILQPRKSLFNGAKFFKKFMNKNPVNGNHQHNSLTRDSQGNEYFASSSSEFLMRKLADWSMMLSDFKTAYSTYESLMDDLDAFPKYLASCIEWCAVSLLMGAQSIVTVKMIKNDINPLIERALATYENCSRIQRGKGKESNSLDVTEPVRSYETRCMILASELFLSLSNTWTSTPYAIQYLETILDECKLGPCSQIMVWERLSDCYNLRVDPRIKHRVGAMKKDAKDTEDLRGEHKYSTDHFTDEDILSEGLTRRRKAAFFRLIAAKKWAEQKQWRQVSWCLKDIESTYSEIKFLHGNGLILSKLKNQLNLKDVDSAPRPSEKNLTRTSVSFIG
B4: Trs130 (protein, UniProt Q03660 1-1102)
chain: MDKEIYCGSVPVSYFDPFDLFESLRPEFQQILPLDNIHWKAFDGTVRTVNRLPIELIPEGRGEADKSNDEQPFIRFLIVNCISIDQYRAKVRPLVRQWLPNLESVSSSTGEKMIYKPIILLYANSEVVDSNLFKSVSLMEKFGKDFPHVQTLEVRSVYRSPKERQEFWNQFSQKIKASVLSIFQKRLTHLQHSLANLQKGNNFEEQLLTREKLYELYVVFNILEDASLELQKIKKEILRRNMNMPDGKLQVPFESSSKSDESLGSIIIEGTLDKFQLHKYFFIRRLRLLKLEDQTLTAFVGAFQLIKNFIESISIEYRKSVRLLEFKHYFITSMLSYFEFENVSNPLLCEIKAELLMLKRDNWVQGVMATSGYRLMDKNYPNSDVKYKFDLLKETFVDETVFQENFLTLTKEILSLFNKCEGKRQRIVDILSIEIGLLYYQGKKYEEAVSLFLSCYEYYTQTNWNSIGLKILQVFIDSLSHCPKLDVLQIDGESVSASAVLTNAFLNILKLCKDNDSKEIWWKKFMDLQMKNNIHLMYPLDGLFEVTLNSKVHLARANVSAIEVNLKSYGFPEDISTKTMRLSLKNMGGDVIVFGASDFLLKKGENKLILECRDIMYGEFSLLSFEIIVEGITFVKEFPENQDEFIVVPEIYCKESTKVLVKQAHNLNLGEYALELKSVQSDALESLQVEVEVQKNIGNMKNLPVSFSMDEIQARKRYNTPFENVRLEYYLLDQITAFDLIIKTSFTKKNDQGTFGETKKVRIQCYLQLSVSVEDIFKKDIFFFKFLLNSSVREEPVILYSSELSAPDTRNDYNIRGDYIATTPALITFDGNESFINCYEITANNNFDSKDIFNLKVRYNTLKEQLDCFITDAVLIEGDVEWFILFEKWKTFWELEILKKLKYDYDAFKENRIIRLLKTSIDLNKTKSKIRNLCIEKAVLDKILICLNKVSRGIAVCNTDMDEYVRNLVPKQLTVPVQLPGFEQFFHVQFEQMETSHDALHDTIATIGNSLSYTVIVENLSGQWGQDVIDDGGYIFEILSSNEWLIHGQKRCAIKEKRKEFEVHLIPLKKGYLNFPRVEITNINGKSCRVDHSNAFESILIF
B5: Trs65 (protein, UniProt P32893 1-560)
chain: MECFVPLRCDLDGSNIEQLRQSHLSRKFIIFDEQLNLWLWFQGNSQENKRFVLQNMIILINEAQVTRTSTIDDYFTQVENNENLWRLKNDCCSKILFKSNVVMNNGYNNQIKFVFEYKSVDANFNNQDSLQDPQAKYTLDKYSSEEILPSFEPVYSWSSAATKSSKNTNNHLEKNNRATHRVSSKNSEVHEADVSRNPNTFTLKLQYPIFSLLNMRLRNISLKSEHCILSSLDFQTSKASEQLTKKFIYPQEHNSFLKLNFQEISYKLIDGTSQIELDPICPLKVPLTAFSYDSISATFKLVLLPKSTQPHRVKITLAYELELHPNLKLPVRTSWETEVTLKRSMPISSTSSQYSSNNNNTNHSASFNGAANNVNSGGLANLRLGGVSSSRFSLGAASTTSLVNSKLSNVKFKFINSNIKVIKGEKFTMRLQIINSSSSPLDLVVYYNNTINPIPSANNVRNSNGINNCGMNNGTIPNSPLTLENQYQLHNKYRKIAEGIILLSNDYKIPVVPPRETYFADLRFIGIMSGYYGTLSGLKVLDLNTNELIEVGNGASVLIQ

The binders below were run against T1, Drs2-GFP (S. cerevisiae) (assay: cross-linking + affinity purification with mass spectrometry).

binding | Binder
binds | B1
binds | B2
binds | B3
binds | B4
binds | B5
